Common to all, as to experiment: two-hybrid; pairwise: GAL4 BD fusions in pAS2-1 (target) and GAL4 AD fusions in pACT2 (binder) in AH109; growth on SD/-Leu-Trp-His with various concentrations of 3-AT (20 or 50 mM), 30 °C, 6-9 days; colony-lift filter assay for lacZ
Assay [1] concerns the target CCT motif of CIL (CIL 337-394aa) (Arabidopsis thaliana).
The target in assay [2] is CIL 1-156aa fragment (Arabidopsis thaliana).
Assay [3] addresses CIL 290-394aa fragment (Arabidopsis thaliana).

These are yes or no findings as the source states them, for the method shown. For some of these results: Binding calls can cover weak binding; strength is not graded here.

B1: full-length CIA2 (CIA2FL) in pAS2-1 or pACT2 (protein, UniProt Q9LU68 1-435)
chain: MSACLSSGGGGAAAYSFELEKVKSPPPSSSTTTTRATSPSSTISESSNSPLAISTRKPRTQRKRPNQTYNEAATLLSTAYPNIFSSNLSSKQKTHSSSNSHFYGPLLSDNDDASDLLLPYESIEEPDFLFHPTIQTKTEFFSDQKEVNSGGDCYGGEIEKFDFSDEFDAESILDEDIEEGIDSIMGTVVESNSNSGIYESRVPGMINRGGRSSSNRIGKLEQMMMINSWNRSSNGFNFPLGLGLRSALRENDDTKLWKIHTVDFEQISPRIQTVKTETAISTVDEEKSDGKKVVISGEKSNKKKKKKKMTVTTTLITESKSLEDTEETSLKRTGPLLKLDYDGVLEAWSDKTSPFPDEIQGSEAVDVNARLAQIDLFGDSGMREASVLRYKEKRRTRLFSKKIRYQVRKLNADQRPRMKGRFVRRPNESTPSGQR
Turning to B1, the figures for the binding entry in assay [1], in assay [2] and in assay [3] were “no binding”, “no binding” and “binds”, respectively.

B2: full-length ARABIDOPSIS RESPONSE REGULATOR 3 (ARR3) in pACT2 (protein, UniProt Q9ZWS9 1-231)
chain: MAKDGGVSCLRRSEMIGIGIGELESPPLDSDQVHVLAVDDSLVDRIVIERLLRITSCKVTAVDSGWRALEFLGLDDDKAAVEFDRLKVDLIITDYCMPGMTGYELLKKIKESTSFKEVPVVIMSSENVMTRIDRCLEEGAEDFLLKPVKLADVKRLRSYLTRDVKVAAEGNKRKLTTPPPPPPLSATSSMESSDSTVESPLSMVDDEDSLTMSPESATSLVDSPMRSPGLA
With B2, the binding result in assay [1] is reported as “no binding”; in assay [2] it was “binds”.

B3: full-length NUCLEAR FACTOR Y, Subunit C1 (NF-YC1) in pACT2 (protein, UniProt Q9SMP0 1-234)
chain: MDTNNQQPPPSAAGIPPPPPGTTISAAGGGASYHHLLQQQQQQLQLFWTYQRQEIEQVNDFKNHQLPLARIKKIMKADEDVRMISAEAPILFAKACELFILELTIRSWLHAEENKRRTLQKNDIAAAITRTDIFDFLVDIVPRDEIKDEAAVLGGGMVVAPTASGVPYYYPPMGQPAGPGGMMIGRPAMDPNGVYVQPPSQAWQSVWQTSTGTGDDVSYGSGGSSGQGNLDGQG
On to B3, for which the binding entry in assay [1] was “no binding”; in assay [2], “binds”.

B4: full-length NUCLEAR FACTOR Y, Subunit B1 (NF-YB1) in pACT2 (protein, UniProt Q9SLG0 1-141)
chain: MADTPSSPAGDGGESGGSVREQDRYLPIANISRIMKKALPPNGKIGKDAKDTVQECVSEFISFITSEASDKCQKEKRKTVNGDDLLWAMATLGFEDYLEPLKIYLARYRELEGDNKGSGKSGDGSNRDAGGGVSGEEMPSW
Turning to B4, the binding entry in assay [1] is “no binding”; in assay [2], “binds”.

B5: full-length NUCLEAR FACTOR Y, Subunit C9 (NF-YC9) in pACT2 (protein, UniProt Q8L4B2 1-231)
chain: MDQQDHGQSGAMNYGTNPYQTNPMSTTAATVAGGAAQPGQLAFHQIHQQQQQQQLAQQLQAFWENQFKEIEKTTDFKNHSLPLARIKKIMKADEDVRMISAEAPVVFARACEMFILELTLRSWNHTEENKRRTLQKNDIAAAVTRTDIFDFLVDIVPREDLRDEVLGSIPRGTVPEAAAAGYPYGYLPAGTAPIGNPGMVMGNPGGAYPPNPYMGQPMWQQQAPDQPDQEN
On to B5, for which the results for the binding result in assay [1] and in assay [2] were “no binding” and “binds”, respectively.

B6: full-length ABSCISIC ACID … 3 (ABI3) in pACT2 (protein, UniProt Q01593 1-720)
chain: MKSLHVAANAGDLAEDCGILGGDADDTVLMDGIDEVGREIWLDDHGGDNNHVHGHQDDDLIVHHDPSIFYGDLPTLPDFPCMSSSSSSSTSPAPVNAIVSSASSSSAASSSTSSAASWAILRSDGEDPTPNQNQYASGNCDDSSGALQSTASMEIPLDSSQGFGCGEGGGDCIDMMETFGYMDLLDSNEFFDTSAIFSQDDDTQNPNLMDQTLERQEDQVVVPMMENNSGGDMQMMNSSLEQDDDLAAVFLEWLKNNKETVSAEDLRKVKIKKATIESAARRLGGGKEAMKQLLKLILEWVQTNHLQRRRTTTTTTNLSYQQSFQQDPFQNPNPNNNNLIPPSDQTCFSPSTWVPPPPQQQAFVSDPGFGYMPAPNYPPQPEFLPLLESPPSWPPPPQSGPMPHQQFPMPPTSQYNQFGDPTGFNGYNMNPYQYPYVPAGQMRDQRLLRLCSSATKEARKKRMARQRRFLSHHHRHNNNNNNNNNNQQNQTQIGETCAAVAPQLNPVATTATGGTWMYWPNVPAVPPQLPPVMETQLPTMDRAGSASAMPRQQVVPDRRQGWKPEKNLRFLLQKVLKQSDVGNLGRIVLPKKEAETHLPELEARDGISLAMEDIGTSRVWNMRYRFWPNNKSRMYLLENTGDFVKTNGLQEGDFIVIYSDVKCGKYLIRGVKVRQPSGQKPEAPPSSAATKRQNKSQRNINNNSPSANVVVASPTSQTVK
In the case of B6, the binding result is listed as “no binding” in assay [1] and “binds” in assay [2].

The values are drawn from PMC7303255.
